Drawing on patent publication US20260193623A1 (METAGENOMI, published 2026), this text covers binding for 3 molecules.

These are yes or no findings as the source states them, for the method shown. Some entries that bind do so weakly or less than the wild type.

Among the targets are MG153-2; MG153-1; MG153-3.
Experiment in all cases: anti-HA immunoblot of lysates of transfected HEK293T cells; band at 2x the expected size (homodimer)
A general note: In western blotting, separated proteins are transferred to a membrane and probed.

B1: MG153-2 (enzyme, not shown: small tags and cut ends)
chain: MDTSSLMEQILSKDNLNAAYLQVVRNKGAAGVDGMTVEELGAYLSENGESIREQLRTRKYRPQPVRRAEISKPDGGVRKLGVPTVVDRFVQQAVAQVLTPIFEEQFHDHSYGFRPNRCAQQAVLKALEMMNDGHSWIVDIDLAKFFDTVDHDKLMTIFGRTIKDGDVISVVRKFLVSGVMIDDEYEDTIVGTPQGGNISPLLANIMLNELDKELEARGLDFVRYADDLIIMVGSRQAADRVMKSVTRFIEERLGLKVNAEKSKVDKPKGIKYLGFGFYFDSFAKAYKARPHPKAVAKFKAQMKKLTCRSWGVSNSYKVLKLNQLIRGWINYFRIGSMIELCKRLDENIRFRLRMCIWKHWKTPKNRAKLLMLLDVPRWAAYKIAYSGNRYARITHNGWVHKAISNKRLAAFGLISMEDYYAKRRVAC
For the molecule B1, in the experiment with MG153-2, the binding entry is given as “binds”.

B2: MG153-1 (enzyme, not shown: small tags and cut ends)
chain: MDTSSLMEQILSKENLNAAYLQVVRNKGAAGVDGMNVEELGAYLSENGENIREQLRTRKYKPQPVRRVEIPKPDGGVRNLGVPTVVDRFVQQAVAQVLTPIFEEQFHDHSYGFRPNRCAQQAVLKALEMMNDGHSWIVDIDLAKFFDTVDHDKLMTIFGRTIKDGDVISVVRKFLVSGVMIDDEYEDTIVGTPQGGNISPLLANIMLNELDNELEARGLNFVRYADDLIIMVGSKQAADRVMKSVTRFIEEKLGLKVNAEKSKVDKPKGIKYLGFGFYFDTFAKAYKARPHPKAVTKFKAQMKKLTCRSWGVSNAYKVQKLNQLIRGWINYFKIGNMKRLCQRLDSNIRYRLRMCIWKHWKTPKNRAKNMMKLGLPAWAAWRSAYIHGYARVCRSRDVHRTITSERLKQFGLMSMTDYYTERSVAC
B2: the binding result with MG153-1 is reported as “binds”.

B3: MG153-3 (enzyme, not shown: small tags and cut ends)
chain: MDTSSLMEQILSKDNLNAAYLQVVRNKGAAGVDGMTVEELGTYLSENGESIREQLRTRKYKPQPVRRVEIPKPDGGIRNLGVPTVVDRFVQQAVAQVLTPIFEEQFHDHSYGFRPNRCAQQAVLKALEMMNDGHDWIVDIDLAKFFDTVDHDKLMTIFGRTIKDGDVISVVRKFLVSGVMIDDEYEDTIVGTPQGGNISPPLANIMLNELDKELEARGLDFVRYADDLIIMVGSRQAADRVMKSVTRFIEERLGLKVNAEKSKVDKPKGIKYLGFGFYFDSFAKAYKARPHQKAVAKFMAQMKKLTCRSWGVSNAYKVQKLNQLIRGWINYFKIGSMKGLCERLDCNIRYRLRMCIWKHWKTPQNRAKYLMQLGIGRKYAWSTAYTGARIAYVCQRGAMNMAITKERLTRFGLVSMADYYAKRRVTC
B3: in the experiment with MG153-3, the binding entry was “binds”.
